# According to the supplement of paper PMC3334620:
# Whole data set: some 33,000 sequences, median “E-score (-0.5 to 0.5)” near -8e-05, cut for the highest 2% near 0.23. Some of the results follow.
# Biological target: T1, Nrg2 (UniProt P38082)
# T1 sequence: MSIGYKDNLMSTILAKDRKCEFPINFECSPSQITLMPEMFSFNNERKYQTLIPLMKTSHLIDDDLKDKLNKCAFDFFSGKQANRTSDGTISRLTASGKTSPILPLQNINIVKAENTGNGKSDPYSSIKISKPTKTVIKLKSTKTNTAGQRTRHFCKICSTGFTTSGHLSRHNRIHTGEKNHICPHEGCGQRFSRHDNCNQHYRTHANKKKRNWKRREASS
# Assay: PBM E-score (8-mer binding enrichment) (E-score (-0.5 to 0.5)); higher = stronger / more preferred TF binding
# Conditions: protein concentration: 100 nM; construct: GST-full length
# Method: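 Universal 'all 10-mer' protein binding microarrays (Agilent AMADID 015681) probed with GST-tagged S. cerevisiae TFs (full-length or DBD) made by in vitro transcription/translation (PURExpress), about 100-200 nM. Bound TF was detected with fluorescent anti-GST. Each ungapped 8-mer (which stands for itself and its reverse complement) is scored by the PBM enrichment score (E-score), a modified Wilcoxon-Mann-Whitney statistic from -0.5 to +0.5, computed with the Universal PBM Analysis Suite. Scale: above 0.35 generally sequence-specific binding.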
row,Sequence,PBM E-score
1,AGCCGATA,-0.115
2,GGTCTGAA,0.165
3,CTTGACTC,-0.268
4,ATGAGGCC,-0.0241
5,ACTTACGG,-0.0136
6,AAATGGCC,-0.173
7,ACAGACGG,-0.155
8,GCTGTGGA,0.117
9,TGCGTTAA,-0.0371
10,CAAAGGGA,0.066
11,AGCACGTC,-0.0238
12,CCGGGCCC,0.0831
13,AGTACCAA,0.117
14,ACGGCGGA,-0.0346
15,CACGGTTA,0.0385
16,CAAATTCC,0.121
17,CCATAGAA,0.0258
18,GGAATCGA,0.0921
19,AACATCAC,0.0311
20,TTACAGAA,-0.0591
21,GTATCACA,0.146
22,GAACAAAC,0.323
23,AGTCGTGG,-0.0598
24,ATACACAC,0.0606
25,ACAGTATG,0.0729

row,Sequence,PBM E-score
1,CACTTCCA,-0.0401
2,AGCGCCTC,-0.231
3,AGTCCACA,-0.155
4,ACCCCACT,0.131
5,CATATAAC,0.172
6,CGGGTTCA,0.0522
7,CAAGCCGA,0.203
8,GGTCTTCA,-0.244
9,AAATGTAT,0.185
10,AAGCACAG,-0.00064
11,CAGATGTA,0.00849
12,AACATTAT,0.122
13,GGGGATAA,0.0856
14,AACAGTCG,-0.0342
15,AAAGCAAC,0.162
16,TCTAGCCA,-0.106
17,ACTCCGGG,-0.0705
18,CCCTTCGC,0.00935
19,GCCAAGTA,-0.23
20,CGCTACTA,0.234
21,ATTCGTGA,0.163
22,GCACGAAA,0.153
23,GCGCTGTA,0.0181
24,AACACCCA,-0.173
25,ACATTGCG,-0.0399

row,Sequence,PBM E-score
1,ATCATATC,0.169
2,GACAATGA,-0.149
3,GCAGCCGA,0.0266
4,GAGTGCCA,-0.0639
5,ATAGAGAT,0.0546
6,TATAATCA,0.202
7,CAGGACAC,-0.0795
8,ATCAACGA,0.0856
9,AAATATAT,0.257
10,AACAACCG,0.021
11,CGCAAAAA,0.141
12,CAAGAATC,0.203
13,TGCTGACA,0.0555
14,CCGTAACG,-0.334
15,TCAGGAGA,0.0861
16,AACGTGTC,-0.199
17,GGAGAGCC,-0.257
18,ACGGTATA,0.0462
19,GAGGTAAA,0.0865
20,GAGGGAAC,0.018
21,GCTTACAC,-0.00254
22,ATCCTGCC,-0.125
23,ACGTTGGG,-0.0242
24,CCGCTCAC,0.0692
25,GGAACAAC,0.133

# Quoted at random: three records from the list
row,Sequence,PBM E-score
19,GAGGTAAA,0.0865
14,CCGTAACG,-0.334
18,ACGGTATA,0.0462

# A second format for part of the listing above:
row | Sequence | PBM E-score
24 | AACACCCA | -0.173
25 | ACATTGCG | -0.0399
1 | ATCATATC | 0.169
2 | GACAATGA | -0.149
3 | GCAGCCGA | 0.0266

# (cont.)

row,Sequence,PBM E-score
1,CCGTCTGA,-0.111
2,CCGTTTGA,-0.0238
3,ACTTAAGA,0.135
4,ACAATAGC,-0.0896
5,GTGCGGCA,0.0438
6,AGGATGTC,0.0442
7,GAAACATA,0.186
8,CTGGCGGA,-0.16
9,CGATGACA,-0.0052
10,CTAGCCCA,-0.128
11,ATCAGCTA,0.0452
12,CGCTCACA,0.134
13,AGGACCTG,-0.328
14,AGTTCAGA,-0.0668
15,ATAGACGA,-0.0209
16,CCATGAAG,-0.0522
17,GCGCGCCC,0.0648
18,GCGCACTA,0.158
19,ACTATTGC,-0.0214
20,CTACAACA,-0.00372
21,AAGTGAAA,0.0897
22,CTTAATCA,0.044
23,ACGACATA,0.0628
24,AACGTTGC,0.123
25,AGCAGCGA,0.0439

row,Sequence,PBM E-score
1,GCAAACCC,-0.0242
2,AAACGGGT,0.0461
3,GTAAGGGA,0.0285
4,CTTGCTGA,-0.00707
5,CACCGCCC,-0.0826
6,CCTATAGG,0.0261
7,ACACGGAT,0.105
8,CGCGAGTC,-0.0622
9,CGAGTGTA,-0.0541
10,CTAGGACA,-0.00109
11,AAGCTTCA,0.0391
12,ACAATACT,0.241
13,TGCATAAA,0.0654
14,AAGACTCT,0.00455
15,AGGACCTC,0.0593
16,GGTTGTCA,0.0525
17,ACGGGGTA,-0.133
18,GCATTTGA,0.0928
19,ACTTCGTC,0.0846
20,AGTTCCGA,0.0484
21,CCGACTTC,-0.128
22,GATGCGAC,0.117
23,GTTTCCCA,0.118
24,ACTTGCCT,0.0426
25,CACGAAGC,-0.0323

# Exported bar-delimited: entries from further up
row | Sequence | PBM E-score
13 | TGCATAAA | 0.0654
15 | AGGACCTC | 0.0593

# Next results

row,Sequence,PBM E-score
1,AAAATTCC,0.126
2,CGCGGCAC,0.00895
3,GTGGCGAA,0.0352
4,GAACAGCA,0.108
5,ACAGTCGT,-0.15
6,CCGAGGAC,0.00443
7,GAAACGTA,0.0595
8,GCTCAACA,-0.0542
9,AAGCGACT,-0.0729
10,ATGACAAC,0.239
11,GGGGGAGA,-0.285
12,ACACCTTC,0.115
13,GCTAGGCA,-0.128
14,ATTCGACA,0.0685
15,AGGACGGC,-0.157
16,AGCCGCGG,-0.0419
17,CGGGTTCC,0.125
18,AACTGAAC,-0.0117
19,TACAGCAA,0.0164
20,AACCCTTA,0.235
21,AGGAAGGA,-0.261
22,CATAAAAC,0.0525
23,CCAGCTGA,0.179
24,ATATGACA,0.244
25,ATGTTGGG,-0.0766

row,Sequence,PBM E-score
1,CATGGCGA,0.0732
2,CTACCACA,-0.118
3,CCACTCAA,0.106
4,CCGCCTGC,-0.288
5,GTCGCCAA,0.0214
6,GAATTTAA,0.00891
7,TCACAACA,0.142
8,CACCAACA,0.0656
9,AGGTACAG,-0.00294
10,CATCTGTA,-0.0324
11,AGTGGCTC,-0.0453
12,AAGAACTA,0.161
13,TAGAAACA,-0.107
14,TCGAGTCA,-0.119
15,GATATTGA,-0.0137
16,CGTCTGGC,0.0181
17,CTACGCAG,-0.0528
18,GCTGTAAA,-0.247
19,ATCGCAGC,0.065
20,CCGGCAGC,-0.103
21,AGGCTCCG,0.0995
22,AAACGGGG,0.178
